Laboratory results from PubChem BioAssay AID504648 (National Center for Advancing Translational Sciences (NCATS), 2011).
Where “and” joins values, the source holds several entries; their conditions need not be identical. Equal entries are not always repeated. The whole screen tested about 390,000 compounds, of which about 610 (0.16%) were called active. This list was built around the results that the source calls inconclusive (neither active nor inactive); the mix of calls is not that of the screen. The call rests on the fitted dose curve; in most records, active means well fitted inhibition curve with a large enough effect; inconclusive means small, poorly fitted or top-dose-only effect, or effect the other way, or another doubt; inactive means no such curve, though single readings can be large or run the other way. A potency beside an inconclusive call is a rough fit, not a confirmed value.

Test: Nrf2 qHTS screen for inhibitors: counterscreen for cytotoxicity
Conditions: A549 ARE-Fluc cells, CellTiter-Fluor viability, 18-24 h; activity change, negative = cytotoxicity: at 46 µM (top of the series)
In short: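 A549 ARE-Fluc cells in 5% FBS OPTI-MEM, 5000 cells/well, rested 2 h then exposed to compounds in concentration-response for 18-24 h at 37 °C. Viability by CellTiter-Fluor fluorescence (Ex 405/Em 525) after 30 min; luciferase luminescence (BugLite, 15 min, RT) read afterwards.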
On the % scale 0 is the no-effect control and ±100 the full control effect; potency means the concentration at half of the fitted maximal effect.

With `CCN=c1scc(-c2ccccc2)n1/N=C/c1ccccn1` as the molecule, how does the Potency read?
Its Potency is inconclusive: 23.1 µM [falling, partial curve, poor fit].

For `Cc1cc(NC(=O)CCC(=O)N(c2ccc(F)cc2)C(C(=O)NC2CCCC2)c2ccc(C)o2)no1` (centres undefined), which “activity change, negative = cytotoxicity” value is on record?
Its value is inactive: -4.5%.

Which “activity change, negative = cytotoxicity” value does the source give for `CCC(C)NC(=O)C1CC(=O)N(CCc2ccc(F)cc2)C1` (centres undefined) here?
The value was inactive: 27.6%.

Which Potency does the source give for `CCCN1CCc2c(sc(NC(=O)c3ccc(S(=O)(=O)N4CCN(C(=O)OCC)CC4)cc3)c2C(N)=O)C1` here?
The Potency was inconclusive: 20.6 µM [falling, single point].

For `CCc1ccc(Nc2cc(C(=O)NCCCN(C)c3ccccc3)c3ccccc3n2)cc1`, which activity change, negative = cytotoxicity is on record?
Its activity change, negative = cytotoxicity is inconclusive: -54.9% [activator].

For `O=C(C[C@@H]1C/C=C/CC[C@@H](Cc2ccc(F)cc2)C(=O)OCCNC1=O)N[C@H](CO)Cc1ccccc1`, which “activity change, negative = cytotoxicity” value is on record?
Its value is inactive: 2.59%.

For `Cn1c(=O)n(CCc2ccccc2)c(=O)c2c1nc1n2CCCN1CCc1ccccc1`, which Potency is on record?
Its Potency is inconclusive: 18.4 µM [falling, single point].

Which Potency does the source give for `CCN1CCc2c(sc(NC(=O)c3ccc(S(=O)(=O)N(C)CC4CCCO4)cc3)c2C(N)=O)C1` (centres undefined) here?
Its Potency is inconclusive: 23.1 µM [falling, partial curve, poor fit].

With `O=C(Nc1ccc([N+](=O)[O-])cc1Cl)c1ccccc1O` as the molecule, how does the Potency read?
Its Potency is inconclusive: 18.4 µM [falling, single point] and inconclusive: 29.1 µM [falling, single point].

Which Potency does the source give for `CC(C)(C)OC(=O)N1CC=C2C(C#N)=C(N)C(C#N)(C#N)C(c3cccs3)C2C1` (centres undefined) here?
The Potency was inconclusive: 7.31 µM [falling, partial curve, poor fit].

With `CCCCCCSc1ccc([C@H]2N[C@@](Cc3ccccc3)(C(=O)OC)[C@H]3C(=O)N(CC)C(=O)[C@@H]23)cc1` as the molecule, how does the “activity change, negative = cytotoxicity” value read?
The value was inactive: -8.75%.

For `Cn1c2ccsc2c2ncn(Cc3ccc(F)cc3)c(=O)c21`, which Potency is on record?
Its Potency is inconclusive: 23.1 µM [activator, partial curve, poor fit].

For `COc1ccc(NC(=O)CCCc2nnc3n(CCC(C)C)c(=O)c4sccc4n23)cc1Cl`, which “activity change, negative = cytotoxicity” value is on record?
Its value is inactive: -11.4%.

With `COC(=O)c1ccc(-n2c(C)cc(C(=O)CCl)c2C)cc1` as the molecule, how does the “activity change, negative = cytotoxicity” value read?
Its value is inactive: -0.0796%.

With `Cc1ccc2nc(N(CCCN(C)C)C(=O)c3cc(-c4cccs4)nc4ccccc34)sc2c1` as the molecule, how does the Potency read?
Its Potency is inconclusive: 32.6 µM [falling, partial curve, poor fit].

For `CC(C)(C)NC(=O)COc1ccc(CNCc2cccs2)cc1`, which Potency is on record?
The Potency was inconclusive: 23.1 µM [activator, partial curve, poor fit].

For `COc1ccccc1C(=O)NC1=NC(c2ccc(Br)cc2)CC(=O)N1` (centres undefined), which “activity change, negative = cytotoxicity” value is on record?
Its value is inactive: -4.45%.

With `O=C1C=C(c2ccccc2)CC(c2cccs2)C1n1cnc([N+](=O)[O-])c1` (centres undefined) as the molecule, how does the “activity change, negative = cytotoxicity” value read?
Its value is inactive: -0.703%.

For `CC(C)Cn1c(N)c(C(=O)COC(=O)c2cc(-c3ccccc3)nc3ccccc23)c(=O)n(C)c1=O`, which “activity change, negative = cytotoxicity” value is on record?
The value was inactive: -6.47%.

Which “activity change, negative = cytotoxicity” value does the source give for `COc1ccc(S(=O)(=O)N2CCCC2C(=O)Nc2nnc(-c3cccnc3)s2)cc1` (centres undefined) here?
The value was inactive: 0.912%.

For `CN(c1ccc(C(=O)Nc2ccc3c(c2)n(C)c(=O)n3C)cc1)S(C)(=O)=O`, which “activity change, negative = cytotoxicity” value is on record?
The value was inactive: -0.209%.

With `c1ccc(C2CC(c3cccs3)=NN2c2ccccc2)cc1` (centres undefined) as the molecule, how does the Potency read?
Its Potency is inconclusive: 23.1 µM [activator, partial curve].

For `CCCCC(CC)CN=C(N)NC(N)=NCCCCCCN=C(N)NC(N)=NCC(CC)CCCC` (centres undefined), which Potency is on record?
Its Potency is inconclusive: 20.6 µM [falling, single point].

With `COc1ccc(N(C)C(=O)c2cc(S(=O)(=O)N3CCc4ccccc43)cn2C)c(OC)c1` as the molecule, how does the Potency read?
Its Potency is inconclusive: 29.1 µM [falling, single point].

With `Cc1ccccc1N=C1NC(=O)/C(=C/c2cccn2-c2cccc(C(=O)O)c2)S1` as the molecule, how does the Potency read?
The Potency was inconclusive: 14.6 µM [falling, partial curve, poor fit].

Which Potency does the source give for `CC(C(=O)NCc1ccc(Cl)cc1)n1cccc1C(=O)c1ccccc1` (centres undefined) here?
The Potency was inconclusive: 20.6 µM [falling, single point].

With `O=C(CNC(=O)c1ccccc1F)OCC(=O)N1CCCCC1` as the molecule, how does the “activity change, negative = cytotoxicity” value read?
Its value is inactive: -2.07%.

With `O=C(CSc1oc(-c2ccccc2)nc1S(=O)(=O)c1ccccc1)c1ccccc1` as the molecule, how does the Potency read?
Its Potency is inconclusive: 32.6 µM [falling, partial curve, poor fit].

With `CSc1ccccc1-c1nnc(-c2ccc(Cl)cc2Cl)o1` as the molecule, how does the “activity change, negative = cytotoxicity” value read?
The value was inactive: 0.0792%.

With `COc1ccc(C(=O)N/N=C(\C)c2ccccn2)cc1OC` as the molecule, how does the Potency read?
Its Potency is inconclusive: 1.64 µM [falling, full curve].

With `COc1ccccc1C(CNC(=O)c1cccc(S(=O)(=O)Nc2ccc(C)cc2)c1)N1CCCC1` (centres undefined) as the molecule, how does the Potency read?
The Potency was inconclusive: 10.3 µM [falling, partial curve].

For `CC(C)CC(NC(=O)OCc1ccccc1)C(=O)NC(Cc1ccccc1)C(=O)CCl` (centres undefined), which Potency is on record?
The Potency was inconclusive: 29.1 µM [falling, single point].

With `O=C(CCc1nc2ccccc2c(=O)[nH]1)OCc1ccc(-c2ccccc2)cc1` as the molecule, how does the Potency read?
Its Potency is inconclusive: 0.0041 µM [activator, full curve, poor fit].

For `O=C1CN(C(=O)c2ccc(Br)o2)C(c2ccc(F)cc2)c2cc(Cl)ccc2N1` (centres undefined), which Potency is on record?
The Potency was inconclusive: 10.3 µM [falling, partial curve, poor fit].

Which “activity change, negative = cytotoxicity” value does the source give for `COc1ccc(/C(N)=N/O)c(OC)c1` here?
Its value is inactive: -1.11%.

For `NC(=S)N=Nc1ccc(NN=C(N)N)cc1`, which Potency is on record?
The Potency was inconclusive: 16.4 µM [falling, partial curve].

With `COCCOc1ccc(C(F)(F)F)cc1NC(=O)COC(=O)c1cc([N+](=O)[O-])ccc1N1CCOCC1` as the molecule, how does the Potency read?
Its Potency is inconclusive: 14.6 µM [falling, partial curve, poor fit].

With `Cc1ccc(C)c2[nH]c(=O)c(C(c3nnnn3Cc3ccccc3)N3CCc4ccccc4C3)cc12` (centres undefined) as the molecule, how does the Potency read?
The Potency was inconclusive: 32.6 µM [falling, partial curve, poor fit].

Which “activity change, negative = cytotoxicity” value does the source give for `Cc1cc(C)nc(-n2nc(C)cc2NC(=O)COC(=O)CCC(=O)c2cccs2)n1` here?
The value was inactive: 3.67%.

With `Cc1ccc(Oc2nc3ccccc3n3cccc23)cc1` as the molecule, how does the Potency read?
The Potency was inconclusive: 32.6 µM [activator, partial curve, poor fit].

With `CSc1nc(Oc2ccc(C)cc2)cc(C(F)(F)F)n1` as the molecule, how does the “activity change, negative = cytotoxicity” value read?
Its value is inactive: 3.96%.

For `CC(C)C(C(=O)O)N1C(=O)/C(=C/C=C/c2ccco2)SC1=S` (centres undefined), which Potency is on record?
Its Potency is inconclusive: 20.6 µM [falling, single point].

With `COc1cc(C(=O)N2CCCc3ccccc32)cc(OC)c1OC` as the molecule, how does the Potency read?
The Potency was inconclusive: 29.1 µM [falling, partial curve, poor fit].

With `Cc1ccc(SCC(=O)Nc2cccc(C)c2)cc1` as the molecule, how does the Potency read?
Its Potency is inconclusive: 0.0041 µM [activator, full curve, poor fit].

For `COCCn1c(N)c(C(=O)NCc2cccs2)c2nc3ccccc3nc21`, which “activity change, negative = cytotoxicity” value is on record?
Its value is inactive: 7.09%.

For `Cc1ccc(S(=O)(=O)C(NC(=O)c2ccccc2)=C(Cl)Cl)cc1`, which Potency is on record?
Its Potency is inconclusive: 23.1 µM [falling, single point].

With `CCSC1=C(C#N)C(c2ccc(Cl)cc2)C2=C(CCCC2=O)N1` (centres undefined) as the molecule, how does the Potency read?
Its Potency is inconclusive: 16.4 µM [falling, partial curve].

With `Cc1ccc2c(C(=O)N3CCN(c4ccccc4)CC3)cc(-c3cccnc3)nc2c1C` as the molecule, how does the Potency read?
Its Potency is inconclusive: 29.1 µM [falling, single point].

For `O=C(Nc1ccc(Cl)c(C(F)(F)F)c1)C(Cc1ccccc1)NS(=O)(=O)c1cccc2nsnc12` (centres undefined), which “activity change, negative = cytotoxicity” value is on record?
The value was inactive: 0.281%.

With `CCc1cc2c(cc3c(=O)n(CC(=O)NCCc4ccccc4)ncn32)s1` as the molecule, how does the “activity change, negative = cytotoxicity” value read?
The value was inactive: -11.4%.

For `CCOc1ccc(C(=O)NC(=S)Nc2cccc(S(=O)(=O)NC3=NCCC3)c2)cc1`, which Potency is on record?
Its Potency is inconclusive: 10.3 µM [falling, partial curve].

With `O=C(C[C@H]1C[C@H](C(=O)N2CCOCC2)[C@@]2(CCC3CCCC3)c3[nH]c4ccc(Cl)cc4c3CCN2C1=O)NCC12CC3CC(CC(C3)C1)C2` as the molecule, how does the “activity change, negative = cytotoxicity” value read?
Its value is inactive: -15.8%.

Which “activity change, negative = cytotoxicity” value does the source give for `O=C(CSc1nccn1Cc1ccc(Cl)cc1)Nc1ccc2c(c1)OCO2` here?
Its value is inactive: 5.86%.

Which Potency does the source give for `CCCc1nc2ccccc2c(C(=O)OCC(=O)Nc2cccc(S(=O)(=O)N3CCOCC3)c2)c1CC` here?
Its Potency is inconclusive: 29.1 µM [falling, single point].

For `Cc1ccc(C(=O)N2CCN3C(=O)c4ccccc4C23c2ccc(Cl)cc2)cc1` (centres undefined), which Potency is on record?
Its Potency is inconclusive: 29.1 µM [falling, single point].

With `C=CCN1C(=O)/C(=C2/Sc3ccccc3N2CCCS(=O)(=O)O)SC1=S` as the molecule, how does the Potency read?
Its Potency is inconclusive: 20.6 µM [falling, single point].

For `O=C(c1cc(N2CCOCC2)c(F)cc1[N+](=O)[O-])N1CCOCC1`, which Potency is on record?
The Potency was inconclusive: 18.4 µM [falling, partial curve, poor fit].

With `C=C1C(=O)O[C@@]23[C@H]1CC[C@@H](C)[C@@H]2CC[C@@]1(C)O[C@@H]31` as the molecule, how does the Potency read?
Its Potency is inconclusive: 32.6 µM [falling, partial curve, poor fit].

With `COc1cc(OC)c2ccc(=O)oc2c1C(CCN1CCOCC1)c1ccc2c(c1)OCO2` (centres undefined) as the molecule, how does the Potency read?
Its Potency is inconclusive: 16.4 µM [falling, partial curve].

For `Cc1ccc2c(c1)sc(-c1ccc(N(C)C)cc1)[n+]2C`, which Potency is on record?
Its Potency is inconclusive: 10.3 µM [falling, partial curve].

For `CC1=Nc2cc(C(=O)N3CCCCC3)ccc2Sc2ccc(C)cc21`, which Potency is on record?
The Potency was inconclusive: 18.4 µM [activator, partial curve, poor fit].

With `CC1(C)CC2CC(C)(CN2S(=O)(=O)c2ccc(C(=O)Nc3ccc(S(=O)(=O)N4CCOCC4)cc3)cc2)C1` (centres undefined) as the molecule, how does the Potency read?
Its Potency is inconclusive: 3.26 µM [falling, partial curve, poor fit].

With `O=C(CNC(=O)c1ccc(F)cc1)N/N=C/c1ccc(O)c([N+](=O)[O-])c1` as the molecule, how does the Potency read?
The Potency was inconclusive: 18.4 µM [falling, partial curve].

For `CCOC(=O)c1cccc(NC(=O)CN2CCN(c3ccc(OC)cc3)CC2)c1`, which Potency is on record?
The Potency was inconclusive: 32.6 µM [activator, partial curve, poor fit].
